Assay in all cases: affinity purification with mass spectrometry; 100 ug GST fusion protein on Glutathione-Sepharose 4B in Buffer L (50 mM Tris-HCl pH 8.0, 250 mM NaCl, 1 mM EDTA); total protein of 2-week-old Col-0 seedlings added, overnight at 4 C, washed 4 x 5 min; bound proteins seen by 10% SDS-PAGE, gel piece cut out, trypsin digest, LC-MS; only the target purified
Test [1] deals with T1, GST-tagged TSN1 fragment tu1 II (721-970 amino acids), C-terminal TSN (Tudor-SN) domain (Arabidopsis thaliana) (UniProt Q8VZG7).
T1 sequence: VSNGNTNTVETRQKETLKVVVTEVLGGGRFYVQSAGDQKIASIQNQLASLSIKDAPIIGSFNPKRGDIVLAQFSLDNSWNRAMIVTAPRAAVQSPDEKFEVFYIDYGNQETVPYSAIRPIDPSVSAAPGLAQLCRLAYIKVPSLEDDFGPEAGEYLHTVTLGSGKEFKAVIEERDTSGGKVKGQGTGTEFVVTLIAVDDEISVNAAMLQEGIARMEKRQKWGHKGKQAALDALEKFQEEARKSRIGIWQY

Test [2] concerns the target T2, GST-tagged TSN1 fragment tu1 I-1 (1-380 amino acids), SN1 and SN2 domains (Arabidopsis thaliana) (UniProt Q8VZG7).
T2 sequence: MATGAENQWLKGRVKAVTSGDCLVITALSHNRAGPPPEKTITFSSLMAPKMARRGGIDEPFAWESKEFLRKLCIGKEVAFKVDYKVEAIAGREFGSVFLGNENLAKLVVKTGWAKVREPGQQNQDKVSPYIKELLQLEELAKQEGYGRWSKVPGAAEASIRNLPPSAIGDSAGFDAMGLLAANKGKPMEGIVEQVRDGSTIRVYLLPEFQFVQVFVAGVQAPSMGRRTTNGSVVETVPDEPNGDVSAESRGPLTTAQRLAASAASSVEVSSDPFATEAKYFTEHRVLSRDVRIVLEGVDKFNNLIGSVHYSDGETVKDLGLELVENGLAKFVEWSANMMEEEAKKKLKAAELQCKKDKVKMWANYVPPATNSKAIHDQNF

Test [3] deals with T3, GST-tagged TSN1 fragment tu1 I-2 (381-720 amino acids), SN3 and SN4 domains (Arabidopsis thaliana) (UniProt Q8VZG7).
T3 sequence: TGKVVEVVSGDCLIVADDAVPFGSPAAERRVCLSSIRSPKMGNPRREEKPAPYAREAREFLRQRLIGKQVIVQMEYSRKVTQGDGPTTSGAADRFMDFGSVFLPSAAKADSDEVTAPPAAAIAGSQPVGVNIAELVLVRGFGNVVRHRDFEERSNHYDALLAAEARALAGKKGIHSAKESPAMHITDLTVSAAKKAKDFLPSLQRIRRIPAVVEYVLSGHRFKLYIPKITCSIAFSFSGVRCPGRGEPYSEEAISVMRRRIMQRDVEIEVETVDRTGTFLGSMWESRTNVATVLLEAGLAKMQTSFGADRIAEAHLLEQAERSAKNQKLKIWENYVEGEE

Results are given in words; binding and its absence hold for the method and conditions named. Binding seen in cells or lysates may run through a third protein. Here binding means that the protein was enriched with, or labelled near, the bait; the list need not be complete. For part of these data: No binding means not detected with the bait. Tags and fused reporters may be left off the sequences shown.

B1: RH31, DEAD-box RNA helicase (At5g63630), endogenous (protein, UniProt Q9FFQ1 1-716)
chain: MPLNFPLRIRFFAHSLSGTHLSYNTSSSVPLLFRIFSSGLNHFEFGSRINFSTRPNRDQPEFERRIRDGGEIRASKSLIEDEEELSNWVSGFRTGSSRGILKSDDEDEEDRSRGRNQEKRGIRNQVDSFRNKRYGGDRERGFNSRIQGKSSEASFRGRKETSFSRDREDEKGLRKREDLRLEDESSDEDVKSLVMGDIGDLLSEDDEEEDQDYDFLKKKAVSAFGFDKENVIEADKTRNANDSYLTKTRFDHYPLSPLSLKAIKDAGYETMTVVQEATLPIILKGKDVLAKAKTGTGKTVAFLLPSIEVVVKSPPTSPDNKRPPILALVICPTRELANQAATEANTLLKYHPSIGVQVVIGGTRLGLEQKRMQTNPCQILVATPGRLKDHIENTPGFATRLKGVKVLVLDEADHLLDMGFRKDIERIISAVPKERQTFLFSATVPEEVRQICLVALRRDHEFVNCVHEGTIETHQQVRQMHMIASLDRHFSLLYTLLREHIMGNVDYKVIVFCTTAMVTKLVADLLGELNLNVREIHSRKPQSYRTRVSNEFRKSKGLILVTSDVSARGVDYPDVTLVLQVGLPKDREQYIHRLGRTGRKGKEGEGILLLAPWEEYFLSSLKDLPITKSPLPSIDPETVKKVQKALCHVEMRNKEAAYQAWLGYYNSQKMIGRDKDRLVELANEFSRSMGLDNPPAIPKLILGKMGLKNVPGLRAK
B1: the binding result in test [1] was “binds”; in test [2], “no binding”; in test [3], “no binding”.

The values are drawn from article PMC8733394.
